The source gives many values for each of these; only a part stands here.
System: KBM7 WT cells (global proteome)
Experiment: Quantitative expression proteomics (TMT isobaric tagging), drug vs DMSO
Format: cell-based, human
Description: The mechanism by which the assayed molecules re-program a functional CRL4B complex based on the data shown could be that drug binding to CUL4B recruits a neo-substrate directly to the cullin backbone. Alternatively, drug binding could stabilize CUL4B function to boost time intervals where a functionally competent CUL4B complexes can be formed. Here, the word “functional” implies that the CUL4B backbone of this complex needs to be neddylated, and a CUL4B associated E2 ubiquitin-conjugating enzyme (UBE2G1) needs to be bound. FIG. 9 outlines one possible mechanism. Both predicted mechanisms of action would result in a functionally altered CRL4B complex, and thus an altered stability of drug-induced (neo-) substrates. In order to identify target proteins with a decreased abundance or, in other words, target proteins that become degraded by CRL4B after drug treatment, global proteome composition was measured using quantitative expression proteomics (TMT-labeling). In brief, KBM7 cells were drug treated for 12 hours, lysed, and subjected to isobaric tagging. Ensuing proteomics analysis quantified a total of 7,903 proteins at a minimum spectral count of 2. […] Data on essentiality are taken from Hart et al., G3, August 2017 (PMID: 28655737).
50×10^6 KBM7^WT cells per condition were collected, washed four times with ice-cold PBS, the supernatant aspirated and pellets snap-frozen in liquid N2. Each washed cell pellet was lysed separately in 40 μL of freshly prepared lysis buffer as previously described (see Mayor-Ruiz et al., Mol Cell 2019)
Offline Fractionation via RP-HPLC at high pH and 2D-RP/RP Liquid Chromatography Mass Spectrometry were performed as previously described (see Mayor-Ruiz et al., Mol Cell 2019).
Acquired raw data files were processed using the Proteome Discoverer 2.2.0 platform, utilizing the Sequest HT database search engine and Percolator validation software node (V3.04) to remove false positives with a false discovery rate (FDR) of 1% on peptide and protein level under strict conditions. Searches were performed with full tryptic digestion against the human SwissProt database v2017.06 with up to two allowed miscleavage sites. Oxidation (+15.9949 Da) of methionine was set as variable modification, whilst carbamidomethylation (+57.0214 Da) of cysteine residues and TMT 6-plex labelling of peptide N-termini and lysine residues were set as fixed modifications. Data was searched with mass tolerances of ±10 ppm and ±0.02 Da on the precursor and fragment ions, respectively. Results were filtered to include peptide spectrum matches (PSMs) with Sequest HT cross-correlation factor (Xcorr) scores of […] and high peptide confidence assigned by Percolator. MS^2 signal-to-noise values (S/N) values of TMT reporter ions were used to estimate peptide/protein abundance changes. PSMs with precursor isolation interference values of ≥ 50% and average TMT-reporter ion S/N≤10 were excluded from quantitation. Only unique peptides were used for TMT quantitation as well as for TOP3 label-free quantitation. Isotopic impurity correction and TMT channel-normalization based on total peptide amount were applied. For statistical analysis and p-value calculation, the integrated ANOVA hypothesis test was used. TMT ratios with p-values below 0.01 were considered as significant. Only proteins with >1 peptide detected and >1 unique peptide detected were considered for further analysis. For the calling of destabilized proteins, a log 2 fold change threshold (drug/DMSO) of −0.3 was applied.
Comparison of overall proteome-wide changes in KBM7 cells treated with IC020772.1 (2.5 μM), IC021313.2 (7 μM) or T6938051 (3.5 μM) for 5 h and 12h, using quantitative proteomics based on isobaric tagging.
The protein names in Table 4, Table 5 and Table 6 refer to the protein names as provided by HUGO Gene Nomenclature Committee (HGNC) database. […]

## O=C(CSc1nnc2c(n1)[nH]c1ccccc12)Nc1ccc(Cl)cn1 [IC020772.1]
VDR (P11473-2)
  log2FC (IC020772.1/DMSO): −0.484
WAS (P42768)
  log2FC (IC020772.1/DMSO): −0.3437
WDR76 (Q9H967)
  log2FC (IC020772.1/DMSO): −0.3201
XPR1 (Q9UBH6-1)
  log2FC (IC020772.1/DMSO): −0.3659
YBX1 (P67809)
  log2FC (IC020772.1/DMSO): −0.3715
YIPF6 (Q96EC8-1)
  log2FC (IC020772.1/DMSO): −0.4403
ZCCHC7 (Q8N3Z6-1)
  log2FC (IC020772.1/DMSO): −0.3997
ZFAND6 (Q6FIF0-1)
  log2FC (IC020772.1/DMSO): −0.3677
ZFPL1 (O95159)
  log2FC (IC020772.1/DMSO): −0.8186
ZNF317 (Q96PQ6-1)
  log2FC (IC020772.1/DMSO): −0.48
ZNF324 (O75467)
  log2FC (IC020772.1/DMSO): −0.4035
ZNF706 (Q9Y5V0)
  log2FC (IC020772.1/DMSO): −0.4364
ZNF813 (Q6ZN06)
  log2FC (IC020772.1/DMSO): −0.3456
ZNRF1 (Q8ND25-1)
  log2FC (IC020772.1/DMSO): −0.4422
ZWILCH (Q9H900-1)
  log2FC (IC020772.1/DMSO): −0.3959
Protein AFTPH (Q6ULP2-1)
  log2FC (IC020772.1/DMSO): −0.3273
Protein ALKBH4 (Q9NXW9-1)
  log2FC (IC020772.1/DMSO): −0.3076
Protein APOBR (QOVD83-4)
  log2FC (IC020772.1/DMSO): −0.3058
Protein ARFIP2 (P53365-1)
  log2FC (IC020772.1/DMSO): −0.3058
Protein ARHGAP15 (Q53QZ3)
  log2FC (IC020772.1/DMSO): −0.3111
Protein BIRC5 (O15392-1)
  log2FC (IC020772.1/DMSO): −0.3219
Protein BLM (P54132)
  log2FC (IC020772.1/DMSO): −0.3219
Protein BSDC1 (Q9NW68-1)
  log2FC (IC020772.1/DMSO): −0.3094
Protein C8orf33 (Q9H7E9-2)
  log2FC (IC020772.1/DMSO): −0.3273
Protein C12orf65 (Q9H3J6-1)
  log2FC (IC020772.1/DMSO): −0.3237
Protein CAPN7 (Q9Y6W3)
  log2FC (IC020772.1/DMSO): −0.3129
Protein CDCA8 (Q53HL2)
  log2FC (IC020772.1/DMSO): −0.3292
Protein CHTF8 (P0CG12-1)
  log2FC (IC020772.1/DMSO): −0.3273
Protein CLDND1 (Q9NY35-1)
  log2FC (IC020772.1/DMSO): −0.3255
Protein CLPB (Q9H078-2)
  log2FC (IC020772.1/DMSO): −0.3237
Protein CNOT7 (Q9UIV1-1)
  log2FC (IC020772.1/DMSO): −0.3058
Protein COA6 (Q5JTJ3-2)
  log2FC (IC020772.1/DMSO): −0.304
Protein COPS7A (Q9UBW8)
  log2FC (IC020772.1/DMSO): −0.3273
Protein DDX49 (Q9Y6V7-1)
  log2FC (IC020772.1/DMSO): −0.3058
Protein DHPS (P49366-1)
  log2FC (IC020772.1/DMSO): −0.3094
Protein DIAPH3 (Q9NSV4-3)
  log2FC (IC020772.1/DMSO): −0.304
Protein EIF3M (Q7L2H7-1)
  log2FC (IC020772.1/DMSO): −0.3111
Protein EPN1 (Q9Y6I3-2)
  log2FC (IC020772.1/DMSO): −0.3076
Protein ERBIN (Q96RT1-8)
  log2FC (IC020772.1/DMSO): −0.304
Protein FAM118A (Q9NWS6-1)
  log2FC (IC020772.1/DMSO): −0.3129
Protein FBRSL1 (Q9HCM7)
  log2FC (IC020772.1/DMSO): −0.3219
Protein FGFR1OP (O95684-1)
  log2FC (IC020772.1/DMSO): −0.3094
Protein GBP1 (P32455)
  log2FC (IC020772.1/DMSO): −0.3094
Protein GTF2E2 (P29084)
  log2FC (IC020772.1/DMSO): −0.3094
Protein HINFP (Q9BQA5-1)
  log2FC (IC020772.1/DMSO): −0.3219
Protein KIAA0586 (Q9BVV6-3)
  log2FC (IC020772.1/DMSO): −0.3076
Protein KIAA0907 (Q7Z7F0-1)
  log2FC (IC020772.1/DMSO): −0.3058
Protein LRP4 (O75096)
  log2FC (IC020772.1/DMSO): −0.3237
Protein MARK4 (Q96L34-1)
  log2FC (IC020772.1/DMSO): −0.3058
Protein MB21D1 (Q8N884-1)
  log2FC (IC020772.1/DMSO): −0.3004
Protein MITD1 (Q8WV92)
  log2FC (IC020772.1/DMSO): −0.3058
Protein MKL2 (Q9ULH7-5)
  log2FC (IC020772.1/DMSO): −0.3058
Protein MLKL (Q8NB16-1)
  log2FC (IC020772.1/DMSO): −0.3129
Protein MRPL55 (Q7Z7F7-2)
  log2FC (IC020772.1/DMSO): −0.304
Protein NIN (Q8N4C6-7)
  log2FC (IC020772.1/DMSO): −0.304
Protein NOA1 (Q8NC60)
  log2FC (IC020772.1/DMSO): −0.3292
Protein NPRL3 (Q12980)
  log2FC (IC020772.1/DMSO): −0.304
Protein NRDC (O43847-2)
  log2FC (IC020772.1/DMSO): −0.3022
Protein NUP37 (Q8NFH4)
  log2FC (IC020772.1/DMSO): −0.3111
Protein PIGH (Q14442)
  log2FC (IC020772.1/DMSO): −0.3111
Protein PNO1 (Q9NRX1)
  log2FC (IC020772.1/DMSO): −0.3255
Protein POCIA (Q8NBT0-1)
  log2FC (IC020772.1/DMSO): −0.3237
Protein POT1 (Q9NUX5-1)
  log2FC (IC020772.1/DMSO): −0.3094
Protein PPP1R14A (Q96A00-1)
  log2FC (IC020772.1/DMSO): −0.3076
Protein PPT2 (Q9UMR5-3)
  log2FC (IC020772.1/DMSO): −0.3058
Protein PRMT3 (O60678-1)
  log2FC (IC020772.1/DMSO): −0.3129
Protein PSMC3IP (Q9P2W1-1)
  log2FC (IC020772.1/DMSO): −0.3273
Protein PSMG1 (O95456-1)
  log2FC (IC020772.1/DMSO): −0.3292
Protein RGPD8 (O14715)
  log2FC (IC020772.1/DMSO): −0.304
Protein RPF2 (Q9H7B2)
  log2FC (IC020772.1/DMSO): −0.3273
Protein RRP36 (Q96EU6-1)
  log2FC (IC020772.1/DMSO): −0.3255
Protein SH3BP5L (Q7L8J4-1)
  log2FC (IC020772.1/DMSO): −0.3292
Protein SKP2 (Q13309-1)
  log2FC (IC020772.1/DMSO): −0.304
Protein SLC3A2 (P08195-1)
  log2FC (IC020772.1/DMSO): −0.3273
Protein SLC38A1 (Q9H2H9)
  log2FC (IC020772.1/DMSO): −0.304
Protein SLITRK5 (O94991-1)
  log2FC (IC020772.1/DMSO): −0.3273
Protein SORBS1 (Q9BX66-12)
  log2FC (IC020772.1/DMSO): −0.3237
Protein SP110 (Q9HB58-7)
  log2FC (IC020772.1/DMSO): −0.3255
Protein SPOP (O43791)
  log2FC (IC020772.1/DMSO): −0.3255
Protein ST6GAL1 (P15907-1)
  log2FC (IC020772.1/DMSO): −0.3255
Protein SURF2 (Q15527)
  log2FC (IC020772.1/DMSO): −0.3219
Protein TAF9B (Q9HBM6)
  log2FC (IC020772.1/DMSO): −0.3022
Protein TCF3 (P15923-2)
  log2FC (IC020772.1/DMSO): −0.3111
Protein TMEM237 (Q96Q45-3)
  log2FC (IC020772.1/DMSO): −0.3058
Protein TUT1 (Q9H6E5)
  log2FC (IC020772.1/DMSO): −0.3129
Protein UBE3D (Q7Z6J8)
  log2FC (IC020772.1/DMSO): −0.3058
Protein VAMP8 (Q9BV40)
  log2FC (IC020772.1/DMSO): −0.3111
Protein WDR73 (Q6P4I2)
  log2FC (IC020772.1/DMSO): −0.304
Protein WWP2 (O00308-1)
  log2FC (IC020772.1/DMSO): −0.3111
Protein XK (P51811)
  log2FC (IC020772.1/DMSO): −0.3058
Protein ZCCHC2 (Q9C0B9-1)
  log2FC (IC020772.1/DMSO): −0.3076
Protein ZNF566 (Q969W8-2)
  log2FC (IC020772.1/DMSO): −0.3094

From US12410152B2, “Oxazole and thioazole-type cullin ring ubiquitin ligase compounds and uses thereof” (Proxygen GmbH, priority 2019, dated 2025)
